The target of the assay is SepL-His (pET28a), expressed in E. coli BL21 (enteropathogenic Escherichia coli (EPEC) O127:H6 strain E2348/69) (UniProt B7UM95). The assay can be described thus: ELISA; […] (15, 30, 60 nM) in binding buffer (20 mM Tris pH 7.4, 120 mM NaCl, 2 mM MgCl2, 1 mM CaCl2, 2.5% glycerol, 2 mg/ml BSA), 1 h at 37°C; […]; both purified. Background: ELISA stands for enzyme-linked immunosorbent assay.

By UniProt entry, the sequences of proteins in these tests, tags left out. Where a name states a change or a piece, a line headed by the entry shows the natural chain unless it says otherwise.
UniProt B7UM95: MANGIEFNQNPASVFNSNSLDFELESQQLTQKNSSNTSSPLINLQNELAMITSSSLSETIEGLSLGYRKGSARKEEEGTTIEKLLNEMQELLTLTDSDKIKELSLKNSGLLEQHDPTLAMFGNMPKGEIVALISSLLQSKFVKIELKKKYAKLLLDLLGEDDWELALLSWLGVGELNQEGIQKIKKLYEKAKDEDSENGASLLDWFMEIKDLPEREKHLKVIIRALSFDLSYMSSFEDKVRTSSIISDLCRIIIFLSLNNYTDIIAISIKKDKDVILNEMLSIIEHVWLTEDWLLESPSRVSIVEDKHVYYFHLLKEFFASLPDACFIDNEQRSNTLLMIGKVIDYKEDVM
UniProt B7UMB2: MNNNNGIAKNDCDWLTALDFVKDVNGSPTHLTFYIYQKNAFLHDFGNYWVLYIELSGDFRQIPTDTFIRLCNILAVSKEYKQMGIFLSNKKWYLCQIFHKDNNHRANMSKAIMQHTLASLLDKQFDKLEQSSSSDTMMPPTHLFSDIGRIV

Results are given in words; binding and its absence hold for the method and conditions named. A result given as binding can be weak or reduced; the word gives no strength.

Drawing on publication PMC5210495, this text covers binding for 1 substance.

Consider “SepD-His (pET21a), purified (from UniProt B7UMB2)”, for which the binding result was “binds”.
